From paper PMC9724358 come the findings set out here.

No constants are given. Whether binding was seen depends on the method and setting. Binding seen in cells or lysates may run through a third protein. Some entries that bind do so weakly or less than the wild type.

For this experiment, the target named is T1, Elongation factor Tu GTP binding domain containing 2, from plasmid (UniProt Q15029).
T1 sequence: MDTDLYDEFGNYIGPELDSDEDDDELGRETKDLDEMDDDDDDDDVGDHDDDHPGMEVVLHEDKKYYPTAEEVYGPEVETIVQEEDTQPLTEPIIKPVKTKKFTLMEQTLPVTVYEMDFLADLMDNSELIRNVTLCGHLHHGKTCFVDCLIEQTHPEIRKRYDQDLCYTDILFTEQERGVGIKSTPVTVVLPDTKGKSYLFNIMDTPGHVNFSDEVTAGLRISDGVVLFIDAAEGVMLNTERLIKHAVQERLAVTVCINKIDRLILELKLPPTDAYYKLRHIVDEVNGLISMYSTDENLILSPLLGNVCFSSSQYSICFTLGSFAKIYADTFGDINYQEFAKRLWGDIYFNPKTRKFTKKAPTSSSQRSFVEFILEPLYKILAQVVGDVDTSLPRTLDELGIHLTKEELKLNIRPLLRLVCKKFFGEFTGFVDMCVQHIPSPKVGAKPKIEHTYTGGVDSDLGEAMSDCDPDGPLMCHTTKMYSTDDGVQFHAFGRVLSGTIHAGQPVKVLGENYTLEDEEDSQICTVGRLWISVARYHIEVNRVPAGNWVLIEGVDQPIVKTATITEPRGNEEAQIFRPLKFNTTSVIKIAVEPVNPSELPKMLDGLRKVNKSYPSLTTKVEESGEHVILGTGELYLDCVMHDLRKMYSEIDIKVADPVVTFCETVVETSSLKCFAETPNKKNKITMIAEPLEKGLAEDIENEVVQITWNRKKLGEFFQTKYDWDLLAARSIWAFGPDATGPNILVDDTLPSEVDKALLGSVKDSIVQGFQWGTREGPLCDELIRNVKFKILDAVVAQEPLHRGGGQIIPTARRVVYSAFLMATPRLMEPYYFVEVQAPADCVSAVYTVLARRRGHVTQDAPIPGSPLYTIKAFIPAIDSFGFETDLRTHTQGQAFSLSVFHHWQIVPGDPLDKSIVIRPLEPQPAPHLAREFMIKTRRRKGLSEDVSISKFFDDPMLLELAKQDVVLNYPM
Description: co-IP; 293T cells co-transfected with two plasmids (10 ug each) for 48 h; weak strength RIPA lysis buffer, agarose A/G beads, Western blot. A general note: In western blotting, separated proteins are transferred to a membrane and probed.

B1: Phosphofructokinase, liver type, from plasmid (enzyme, UniProt P17858 1-780)
chain: MAAVDLEKLRASGAGKAIGVLTSGGDAQGMNAAVRAVTRMGIYVGAKVFLIYEGYEGLVEGGENIKQANWLSVSNIIQLGGTIIGSARCKAFTTREGRRAAAYNLVQHGITNLCVIGGDGSLTGANIFRSEWGSLLEELVAEGKISETTARTYSHLNIAGLVGSIDNDFCGTDMTIGTDSALHRIMEVIDAITTTAQSHQRTFVLEVMGRHCGYLALVSALASGADWLFIPEAPPEDGWENFMCERLGETRSRGSRLNIIIIAEGAIDRNGKPISSSYVKDLVVQRLGFDTRVTVLGHVQRGGTPSAFDRILSSKMGMEAVMALLEATPDTPACVVTLSGNQSVRLPLMECVQMTKEVQKAMDDKRFDEATQLRGGSFENNWNIYKLLAHQKPPKEKSNFSLAILNVGAPAAGMNAAVRSAVRTGISHGHTVYVVHDGFEGLAKGQVQEVGWHDVAGWLGRGGSMLGTKRTLPKGQLESIVENIRIYGIHALLVVGGFEAYEGVLQLVEARGRYEELCIVMCVIPATISNNVPGTDFSLGSDTAVNAAMESCDRIKQSASGTKRRVFIVETMGGYCGYLATVTGIAVGADAAYVFEDPFNIHDLKVNVEHMTEKMKTDIQRGLVLRNEKCHDYYTTEFLYNLYSSEGKGVFDCRTNVLGHLQQGGAPTPFDRNYGTKLGVKAMLWLSEKLREVYRKGRVFANAPDSACVIGLKKKAVAFSPVTELKKDTDFEHRMPREQWWLSLRLMLKMLAQYRISMAAYVSGELEHVTRRTLSMDKGF
Take B1: the binding result was “binds”.

B2: YTH domain family protein 3, from plasmid (protein, UniProt Q7Z739 1-585)
chain: MSATSVDQRPKGQGNKVSVQNGSIHQKDAVNDDDFEPYLSSQTNQSNSYPPMSDPYMPSYYAPSIGFPYSLGEAAWSTAGDQPMPYLTTYGQMSNGEHHYIPDGVFSQPGALGNTPPFLGQHGFNFFPGNADFSTWGTSGSQGQSTQSSAYSSSYGYPPSSLGRAITDGQAGFGNDTLSKVPGISSIEQGMTGLKIGGDLTAAVTKTVGTALSSSGMTSIATNSVPPVSSAAPKPTSWAAIARKPAKPQPKLKPKGNVGIGGSAVPPPPIKHNMNIGTWDEKGSVVKAPPTQPVLPPQTIIQQPQPLIQPPPLVQSQLPQQQPQPPQPQQQQGPQPQAQPHQVQPQQQQLQNRWVAPRNRGAGFNQNNGAGSENFGLGVVPVSASPSSVEVHPVLEKLKAINNYNPKDFDWNLKNGRVFIIKSYSEDDIHRSIKYSIWCSTEHGNKRLDAAYRSLNGKGPLYLLFSVNGSGHFCGVAEMKSVVDYNAYAGVWSQDKWKGKFEVKWIFVKDVPNNQLRHIRLENNDNKPVTNSRDTQEVPLEKAKQVLKIIATFKHTTSIFDDFAHYEKRQEEEEAMRRERNRNKQ
On to B2, for which the binding entry was “binds”.
